Measurements: the supplement of paper PMC12823440, “Inhibitors supercharge kinase turnover through native proteolytic circuits” (Nature, 2025)
This is one part of the list. The calls rarely recur for the same compound in another form.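 Kinases, fused to nanoluciferase, were expressed in K562 cells; luminescence was measured every 4 h from 2 to 18 h as percent of control (DMSO = 100%, positive control = 0%). A time point is decreased if signal falls significantly (2 sigma). Hits were called by the authors by a rule that is not shown; the count of time points alone does not decide it.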

Protein sequences, listed by entry. Tags and fused reporters are not part of them. Lines headed by an entry give the natural chain unless they say otherwise; changes in a name come on top.
UniProt Q01974, whole entry: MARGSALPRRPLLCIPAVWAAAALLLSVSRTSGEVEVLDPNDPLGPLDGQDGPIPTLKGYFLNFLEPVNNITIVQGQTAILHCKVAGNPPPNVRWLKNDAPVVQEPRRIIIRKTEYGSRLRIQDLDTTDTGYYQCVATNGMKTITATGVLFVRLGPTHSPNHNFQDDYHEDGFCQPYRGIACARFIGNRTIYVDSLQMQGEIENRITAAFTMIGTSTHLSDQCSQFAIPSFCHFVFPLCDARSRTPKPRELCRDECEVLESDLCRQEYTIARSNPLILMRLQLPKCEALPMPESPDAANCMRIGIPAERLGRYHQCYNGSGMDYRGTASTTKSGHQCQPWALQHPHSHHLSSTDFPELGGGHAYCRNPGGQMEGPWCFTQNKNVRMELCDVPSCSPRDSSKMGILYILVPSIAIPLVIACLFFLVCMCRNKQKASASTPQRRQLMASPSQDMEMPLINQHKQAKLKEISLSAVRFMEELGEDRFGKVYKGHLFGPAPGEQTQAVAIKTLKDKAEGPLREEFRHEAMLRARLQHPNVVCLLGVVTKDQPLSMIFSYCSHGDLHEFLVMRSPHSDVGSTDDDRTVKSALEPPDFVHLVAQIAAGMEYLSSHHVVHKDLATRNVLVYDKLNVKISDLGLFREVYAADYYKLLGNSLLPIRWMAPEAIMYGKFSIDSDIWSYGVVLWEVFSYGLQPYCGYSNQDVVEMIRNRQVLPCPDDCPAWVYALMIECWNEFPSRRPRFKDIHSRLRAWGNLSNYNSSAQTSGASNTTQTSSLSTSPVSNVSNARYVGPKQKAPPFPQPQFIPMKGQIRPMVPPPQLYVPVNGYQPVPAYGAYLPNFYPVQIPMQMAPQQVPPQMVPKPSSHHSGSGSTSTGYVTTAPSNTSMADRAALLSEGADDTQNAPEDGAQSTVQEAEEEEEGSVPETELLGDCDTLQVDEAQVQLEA
UniProt Q15418, whole entry: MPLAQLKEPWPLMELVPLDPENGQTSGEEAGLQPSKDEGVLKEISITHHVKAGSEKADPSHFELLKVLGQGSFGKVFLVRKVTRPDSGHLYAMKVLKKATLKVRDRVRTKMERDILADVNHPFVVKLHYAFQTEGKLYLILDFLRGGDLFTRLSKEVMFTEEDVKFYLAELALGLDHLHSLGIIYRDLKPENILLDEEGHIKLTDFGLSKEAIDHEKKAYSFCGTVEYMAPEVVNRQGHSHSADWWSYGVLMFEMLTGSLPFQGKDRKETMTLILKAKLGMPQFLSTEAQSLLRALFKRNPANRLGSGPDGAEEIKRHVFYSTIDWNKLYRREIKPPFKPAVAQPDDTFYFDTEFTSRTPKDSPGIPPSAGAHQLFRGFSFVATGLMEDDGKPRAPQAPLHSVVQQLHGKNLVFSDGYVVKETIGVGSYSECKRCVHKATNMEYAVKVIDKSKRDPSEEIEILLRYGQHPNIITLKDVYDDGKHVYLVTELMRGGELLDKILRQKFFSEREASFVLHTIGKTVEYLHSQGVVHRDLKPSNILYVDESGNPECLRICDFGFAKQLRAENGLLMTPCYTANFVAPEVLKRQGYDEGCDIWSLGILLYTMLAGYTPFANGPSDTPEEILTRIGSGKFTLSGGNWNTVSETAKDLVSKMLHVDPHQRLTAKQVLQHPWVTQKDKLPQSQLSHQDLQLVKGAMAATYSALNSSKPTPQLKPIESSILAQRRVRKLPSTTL
UniProt Q9NYA1, whole entry: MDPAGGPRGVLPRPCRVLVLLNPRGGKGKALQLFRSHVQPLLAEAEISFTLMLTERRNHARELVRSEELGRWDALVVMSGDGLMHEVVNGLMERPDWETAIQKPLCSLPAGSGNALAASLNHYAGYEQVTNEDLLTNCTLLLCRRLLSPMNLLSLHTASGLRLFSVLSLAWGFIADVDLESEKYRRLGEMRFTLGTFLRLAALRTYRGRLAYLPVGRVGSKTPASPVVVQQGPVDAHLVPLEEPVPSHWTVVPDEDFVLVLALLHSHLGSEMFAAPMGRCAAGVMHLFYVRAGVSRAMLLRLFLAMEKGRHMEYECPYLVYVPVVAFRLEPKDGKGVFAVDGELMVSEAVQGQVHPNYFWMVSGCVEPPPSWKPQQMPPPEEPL
UniProt Q9Y6E0: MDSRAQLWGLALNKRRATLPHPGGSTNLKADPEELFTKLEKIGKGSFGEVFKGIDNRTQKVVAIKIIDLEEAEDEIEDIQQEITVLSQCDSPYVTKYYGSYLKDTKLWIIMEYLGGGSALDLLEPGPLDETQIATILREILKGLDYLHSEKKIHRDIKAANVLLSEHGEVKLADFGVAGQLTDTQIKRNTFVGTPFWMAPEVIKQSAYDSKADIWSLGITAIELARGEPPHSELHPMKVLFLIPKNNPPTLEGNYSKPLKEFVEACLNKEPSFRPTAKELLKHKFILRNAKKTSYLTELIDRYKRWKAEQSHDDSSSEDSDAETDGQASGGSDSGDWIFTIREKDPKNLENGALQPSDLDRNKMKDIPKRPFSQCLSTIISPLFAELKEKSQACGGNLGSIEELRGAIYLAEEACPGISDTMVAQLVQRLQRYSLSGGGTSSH
UniProt Q15208: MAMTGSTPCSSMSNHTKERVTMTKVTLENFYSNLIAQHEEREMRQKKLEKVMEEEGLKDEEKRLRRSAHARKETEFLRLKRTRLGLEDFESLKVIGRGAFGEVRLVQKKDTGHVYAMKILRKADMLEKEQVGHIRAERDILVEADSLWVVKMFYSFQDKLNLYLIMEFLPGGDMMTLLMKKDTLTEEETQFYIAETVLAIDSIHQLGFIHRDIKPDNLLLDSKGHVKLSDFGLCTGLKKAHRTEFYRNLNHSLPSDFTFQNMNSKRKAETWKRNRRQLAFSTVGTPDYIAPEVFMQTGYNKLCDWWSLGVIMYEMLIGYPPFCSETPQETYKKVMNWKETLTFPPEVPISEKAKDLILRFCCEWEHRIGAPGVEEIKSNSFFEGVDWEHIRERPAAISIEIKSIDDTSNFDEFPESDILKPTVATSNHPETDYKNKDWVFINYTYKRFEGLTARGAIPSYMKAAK
UniProt P29597: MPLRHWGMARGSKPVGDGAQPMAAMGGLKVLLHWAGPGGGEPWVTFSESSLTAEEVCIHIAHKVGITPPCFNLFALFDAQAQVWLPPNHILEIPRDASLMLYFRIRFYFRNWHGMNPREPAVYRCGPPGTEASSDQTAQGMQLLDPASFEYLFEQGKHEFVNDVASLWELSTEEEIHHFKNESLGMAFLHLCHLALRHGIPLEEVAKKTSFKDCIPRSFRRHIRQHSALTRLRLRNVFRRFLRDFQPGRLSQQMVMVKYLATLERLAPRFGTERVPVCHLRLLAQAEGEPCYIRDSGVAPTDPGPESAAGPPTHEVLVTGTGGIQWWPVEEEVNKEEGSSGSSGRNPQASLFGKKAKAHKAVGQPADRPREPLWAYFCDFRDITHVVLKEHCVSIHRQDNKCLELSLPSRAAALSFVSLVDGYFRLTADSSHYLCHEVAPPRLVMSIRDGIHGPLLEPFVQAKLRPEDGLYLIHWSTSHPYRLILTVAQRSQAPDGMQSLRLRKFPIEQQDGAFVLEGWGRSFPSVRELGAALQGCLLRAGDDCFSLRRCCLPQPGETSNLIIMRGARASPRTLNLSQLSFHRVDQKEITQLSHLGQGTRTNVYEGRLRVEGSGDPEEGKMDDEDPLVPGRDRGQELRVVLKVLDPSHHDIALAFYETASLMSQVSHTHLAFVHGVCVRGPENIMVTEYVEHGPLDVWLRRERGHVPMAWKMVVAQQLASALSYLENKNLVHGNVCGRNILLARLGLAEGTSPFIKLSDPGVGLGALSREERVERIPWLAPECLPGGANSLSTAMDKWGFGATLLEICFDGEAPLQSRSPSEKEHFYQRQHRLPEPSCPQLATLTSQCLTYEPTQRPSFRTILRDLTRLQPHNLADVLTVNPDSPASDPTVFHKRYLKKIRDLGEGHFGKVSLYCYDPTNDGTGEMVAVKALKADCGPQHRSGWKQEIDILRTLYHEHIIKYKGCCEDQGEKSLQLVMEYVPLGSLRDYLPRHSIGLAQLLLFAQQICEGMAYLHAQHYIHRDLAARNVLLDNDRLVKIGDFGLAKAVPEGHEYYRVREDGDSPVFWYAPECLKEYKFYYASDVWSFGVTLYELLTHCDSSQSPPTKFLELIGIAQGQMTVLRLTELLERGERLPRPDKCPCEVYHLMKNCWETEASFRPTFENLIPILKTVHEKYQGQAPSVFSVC
UniProt Q6PHR2: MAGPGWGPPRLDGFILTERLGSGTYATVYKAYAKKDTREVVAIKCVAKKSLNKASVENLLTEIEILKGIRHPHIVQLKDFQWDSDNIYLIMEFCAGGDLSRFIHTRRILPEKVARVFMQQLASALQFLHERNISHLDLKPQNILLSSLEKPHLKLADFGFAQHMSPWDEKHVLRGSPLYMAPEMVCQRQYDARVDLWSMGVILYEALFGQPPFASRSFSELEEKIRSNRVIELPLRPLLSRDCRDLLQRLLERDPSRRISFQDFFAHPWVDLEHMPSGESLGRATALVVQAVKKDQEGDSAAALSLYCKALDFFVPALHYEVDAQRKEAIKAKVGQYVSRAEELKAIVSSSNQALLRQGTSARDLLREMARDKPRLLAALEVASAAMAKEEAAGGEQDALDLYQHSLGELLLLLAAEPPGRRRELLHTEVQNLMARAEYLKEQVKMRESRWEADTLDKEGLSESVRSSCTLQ
UniProt P07947, whole entry, looked up: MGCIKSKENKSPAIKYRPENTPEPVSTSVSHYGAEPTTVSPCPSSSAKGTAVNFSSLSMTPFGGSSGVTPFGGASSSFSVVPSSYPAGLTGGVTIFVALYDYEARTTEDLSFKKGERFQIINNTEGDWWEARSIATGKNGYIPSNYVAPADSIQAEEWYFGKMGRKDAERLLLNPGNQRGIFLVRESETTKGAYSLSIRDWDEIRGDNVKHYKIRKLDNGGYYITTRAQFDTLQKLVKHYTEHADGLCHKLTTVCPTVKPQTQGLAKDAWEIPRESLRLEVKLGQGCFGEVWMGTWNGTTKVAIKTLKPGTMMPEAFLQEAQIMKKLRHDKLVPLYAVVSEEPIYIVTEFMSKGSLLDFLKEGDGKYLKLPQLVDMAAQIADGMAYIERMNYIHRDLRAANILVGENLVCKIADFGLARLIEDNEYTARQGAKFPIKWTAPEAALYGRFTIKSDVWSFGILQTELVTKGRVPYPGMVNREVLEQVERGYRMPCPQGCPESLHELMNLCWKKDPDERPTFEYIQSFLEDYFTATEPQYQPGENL
UniProt P43403: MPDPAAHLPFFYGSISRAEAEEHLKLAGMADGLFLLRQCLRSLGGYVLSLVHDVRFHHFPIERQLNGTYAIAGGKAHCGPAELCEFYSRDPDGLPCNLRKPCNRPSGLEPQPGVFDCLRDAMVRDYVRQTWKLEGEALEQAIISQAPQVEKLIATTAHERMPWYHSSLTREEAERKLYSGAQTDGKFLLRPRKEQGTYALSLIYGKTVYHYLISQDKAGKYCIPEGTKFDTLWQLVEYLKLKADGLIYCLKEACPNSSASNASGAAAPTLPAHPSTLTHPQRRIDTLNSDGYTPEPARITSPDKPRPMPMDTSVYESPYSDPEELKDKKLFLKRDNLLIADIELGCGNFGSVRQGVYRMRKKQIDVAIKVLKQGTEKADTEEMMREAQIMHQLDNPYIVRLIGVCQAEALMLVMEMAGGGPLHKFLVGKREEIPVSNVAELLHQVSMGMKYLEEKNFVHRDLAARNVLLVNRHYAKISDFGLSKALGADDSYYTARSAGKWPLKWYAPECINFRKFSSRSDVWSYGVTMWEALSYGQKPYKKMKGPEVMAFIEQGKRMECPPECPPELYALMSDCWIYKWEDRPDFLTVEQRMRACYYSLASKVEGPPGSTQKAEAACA
UniProt P11802: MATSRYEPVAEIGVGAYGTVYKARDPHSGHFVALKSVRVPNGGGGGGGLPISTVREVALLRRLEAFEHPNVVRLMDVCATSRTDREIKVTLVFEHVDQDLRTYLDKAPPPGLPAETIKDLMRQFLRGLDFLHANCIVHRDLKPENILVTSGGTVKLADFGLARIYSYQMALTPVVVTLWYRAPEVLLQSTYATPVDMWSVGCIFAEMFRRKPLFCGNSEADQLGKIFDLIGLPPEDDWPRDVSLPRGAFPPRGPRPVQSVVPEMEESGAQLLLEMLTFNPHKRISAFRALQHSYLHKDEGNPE
UniProt P50613: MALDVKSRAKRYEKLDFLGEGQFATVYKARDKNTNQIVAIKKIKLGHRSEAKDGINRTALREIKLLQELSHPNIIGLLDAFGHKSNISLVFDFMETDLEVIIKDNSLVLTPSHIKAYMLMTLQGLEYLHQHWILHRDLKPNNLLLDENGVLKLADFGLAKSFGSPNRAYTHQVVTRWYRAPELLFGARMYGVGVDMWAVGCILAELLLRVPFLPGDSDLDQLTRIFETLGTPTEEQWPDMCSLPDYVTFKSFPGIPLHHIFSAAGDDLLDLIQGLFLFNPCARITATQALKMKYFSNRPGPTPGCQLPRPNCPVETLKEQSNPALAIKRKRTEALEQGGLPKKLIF

What was measured:
Conditions in all cases: K562; 2-18 h
ROR2 = ROR2 (UniProt Q01974); test: number of time points (of 5) at which kinase-Nluc abundance scored as decreased, DMSO-normalised (count); higher = more persistent destabilization
RPS6KA1 = RPS6KA1 (UniProt Q15418); test: as above
SPHK1 = SPHK1 (UniProt Q9NYA1); test: as above
SRC = SRC (UniProt P12931); test: as above
STK24 = STK24 (UniProt Q9Y6E0); test: as above
STK38 = STK38 (UniProt Q15208); test: as above
SYK = SYK (UniProt P43405); test: as above
TEC = TEC (UniProt P42680); test: as above
TYK2 = TYK2 (UniProt P29597); test: as above
ULK3 = ULK3 (UniProt Q6PHR2); test: as above
YES1 = YES1 (UniProt P07947); test: as above
ZAK = ZAK (UniProt Q9NYL2); test: as above
ZAP70 = ZAP70 (UniProt P43403); test: as above
CDK4 = CDK4 (UniProt P11802); test: number of time points (of 4; 2 h point missing) at which kinase-Nluc abundance scored as decreased, DMSO-normalised (count); higher = more persistent destabilization
CDK7 = CDK7 (UniProt P50613); test: as above
CDK9 = CDK9 (UniProt P50750); test: as above

Measured: number of time points

CC(C)(O)c1cc2nc(-c3cnc(N)nc3)nc(N3CCOCC3)c2s1 (2.5 µM)
4: TYK2
2: CDK7
0: all other assays above

COc1cccc2cc(-c3nc([C@H]4CC[C@H](C(=O)O)CC4)n4ncnc(N)c34)[nH]c12 (2.5 µM)
1: ULK3 | YES1 | ZAK
4: TYK2 | CDK9
3: CDK7
0: all other assays above

COc1cc(Nc2nc3ccccc3nc2NS(=O)(=O)c2ccc(NC(=O)c3ccc(C)c(OC)c3)cc2)cc(OC)c1 (10 µM)
0: all assays above

NC(=O)c1nc(-c2c(F)cccc2Cl)oc1Nc1ccc(C(=O)N2CCOCC2)cc1 (10 µM)
0: all assays above

Random excerpt: 2 compounds from above.
CC(C)(O)c1cc2nc(-c3cnc(N)nc3)nc(N3CCOCC3)c2s1 (2.5 µM)
4: TYK2
2: CDK7
0: all other assays above

COc1cc(Nc2nc3ccccc3nc2NS(=O)(=O)c2ccc(NC(=O)c3ccc(C)c(OC)c3)cc2)cc(OC)c1 (10 µM)
0: all assays above

More compounds

COc1ccc(F)cc1C(=O)NCc1ccc(-c2nn([C@@H](C)C(F)(F)F)c(N)c2C(N)=O)cc1 [Pirtobrutinib] (10 µM)
0: all assays above

N#Cc1cn([C@@H]2O[C@H](CO)[C@@H](O)[C@H]2O)c2nc[nH]c(=O)c12 [Jaspamycin] (10 µM)
0: all assays above

COc1cc(-c2cc(-c3cccc(O)c3)cnc2N)cc(OC)c1OC (2.5 µM)
3: ULK3 | CDK7
2: TYK2
0: all other assays above

O=c1ccc2cc(O)c(O)cc2o1 [Esculetin] (10 µM)
0: all assays above

CN1CCC(c2ccccc2CC(C)(C)Nc2nc(N3CCOCC3)nc(-n3c(S(C)(=O)=O)nc4ccccc43)n2)CC1 (10 µM)
0: all assays above

O=S(=O)(N=Cc1c(O)ccc2ccccc12)c1cccs1 (10 µM)
0: all assays above

Cc1nc(Nc2ncc(C(=O)Nc3c(C)cccc3Cl)s2)cc(N2CCN(C(=O)CCCCCCC(=O)N[C@H](C(=O)N3C[C@H](O)C[C@H]3C(=O)NCc3ccc(-c4scnc4C)cc3)C(C)(C)C)CC2)n1 (2.5 µM)
1: ROR2 | RPS6KA1 | ZAK
3: TEC | TYK2 | ULK3
0: STK24 | SYK | ZAP70 | CDK4
4: YES1
2: all other assays above

C=CC(=O)Nc1cccc(Nc2nc(Nc3ccc(Oc4ccnc(C(=O)NC)c4)cc3)ncc2F)c1 (2.5 µM)
0: all assays above

COc1ccc(C2CC(c3ccc(Cl)cc3)=NN2c2nc(-c3ccncc3)cs2)cc1 (centres undefined) [mTOR inhibitor-8] (10 µM)
0: all assays above

CN(c1ccc(C(F)(F)F)cc1)S(=O)(=O)c1ccc(C(=O)Nc2nc(-c3ccccn3)cs2)cc1 (2.5 µM)
0: all assays above
